{
  "source": "patent US4075194A",
  "about": "(Yeda Research and Development Co., Ltd., priority 1976, dated 1978)",
  "experiment": "general procedure: Boc solid-phase peptide synthesis; chloromethylated resin (1.2 meq of Cl/g); 0.36 mmol of valine per g",
  "conditions": "whole synthesis",
  "note": "Ends that are not written are not given here.",
  "data": [
    {"sequence": "LNFPTSEITLK", "values": [
      {"measurement": "crude mass", "value": 650, "unit": "mg"},
      {"measurement": "crude yield", "setting": "scale of the general procedure 5 g of chloromethylated resin", "value": 35, "unit": "%"}
    ]}
  ]
}
